# Primary screen of a compound library

Amino acid sequences for entries named in this document (tags omitted). Residues count along the entry.
UniProt A4I591, 1-473: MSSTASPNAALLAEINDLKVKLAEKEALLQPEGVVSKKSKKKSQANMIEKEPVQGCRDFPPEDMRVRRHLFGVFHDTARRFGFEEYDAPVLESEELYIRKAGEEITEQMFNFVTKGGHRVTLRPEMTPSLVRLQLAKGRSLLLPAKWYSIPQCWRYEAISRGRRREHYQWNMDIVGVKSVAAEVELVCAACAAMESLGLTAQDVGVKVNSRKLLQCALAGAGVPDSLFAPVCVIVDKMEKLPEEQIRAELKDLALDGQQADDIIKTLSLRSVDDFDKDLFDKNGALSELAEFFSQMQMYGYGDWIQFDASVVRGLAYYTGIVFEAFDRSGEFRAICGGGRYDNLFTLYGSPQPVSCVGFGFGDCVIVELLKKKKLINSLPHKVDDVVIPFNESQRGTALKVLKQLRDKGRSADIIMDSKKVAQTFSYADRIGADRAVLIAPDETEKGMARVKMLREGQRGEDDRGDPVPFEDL

Measurements from “University of Dundee, Small-Polar-MMV Screening Library” (2021), ChEMBL document CHEMBL3988442.

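Histidine-tRNA ligase, Leishmania infantum (UniProt A4I591). Enzyme assay of histidyl-tRNA synthetase; the read-out is not stated. Compounds at 30 µM. Direction is inferred from retests: higher values go with stronger inhibition. The assay is labelled LdHisRS but filed under L. infantum. Size under these conditions: about 69,000 compounds, about 410 of them at 50% or above in at least one test.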

Results are given as percent effect.
The record does not define 0% and 100%; most values in the screen are far below 50% and negative numbers occur (in some assays of this library far below -100).
The compounds are a random part of those screened.

SMILES | Percent Effect
COc1ccc(C2=CCN(C(=O)C3CCCN(C(C)=O)C3)CC2)cc1 (centres unmarked) | 16.96
Cc1c(O)oc(-c2ccc(Br)cc2)nc1=O | 25.71
COc1ccc(F)cc1C(=O)N1CCn2c(nnc2C(F)(F)F)C1 | 16.88
O=C(Nc1cc(C(F)(F)F)ccc1Cl)c1ccc(N2CCOCC2)nn1 | 2.564
CCc1noc(C(C)N2CCN(c3ncnc4sccc34)CC2)n1 (centres unmarked) | 14.88
COCCC(=O)N1C[C@H]2CN(Cc3cccc(C)c3)C(=O)[C@H]2C1 | 7.692
CCCN(CCC)c1nc(N)nc(-c2cc(Cl)ccc2OC)n1 | 21.84
COC(=O)C(c1cc(F)ccc1F)N(C)C(=O)c1ccnc(C)n1 (centres unmarked) | 16.22
CCCN1CCC(Nc2nc(C)ns2)CC1 | 17.65
O=C(c1cccc(Cl)c1)N1CC[C@@H](N2CCC(O)CC2)[C@H](O)C1 | 10.26
Cc1noc(C(C)N2CCN(Cc3nnc(C4CC4)o3)CC2)n1 (centres unmarked) | 10.34
Cc1cc(CNC(=O)N2CCN(Cc3ccccc3)C[C@H]2C)on1 | 19.19
CN(C)CCNC(=O)Nc1cccc(C[S+]([O-])Cc2ccccc2)c1 (centres unmarked) | 20
CC[C@H]1CN(C(=O)c2cnc(CN3CCCC3)s2)CC[C@@]1(C)O | 13.49
CN(CCN1CCCC1=O)CC(c1cccs1)N1CCOCC1 (centres unmarked) | 4.762
Cc1nc(C)c(C(=O)N2CCc3cc(F)ccc3C2C)o1 (centres unmarked) | 0
CC(NC(=O)N1CCNC(=O)CC1)c1c(F)cccc1Cl (centres unmarked) | 19.54
Cc1csc(CNc2cnc3c(c2)c(C)nn3C)n1 | 14.61
O=C(Nc1ccccn1)NC(CCCO)c1ccccc1 (centres unmarked) | 2.439
Cc1cccc(-c2ccc(C(=O)N3CCN(C4CC4)CC3)c(=O)[nH]2)c1 | -3.371
CNC(=O)C(C)(C)N(C)C(=O)c1cc(COc2ccccc2OC)[nH]n1 | 15.05
Cc1cccc(CN2C(=O)CO[C@@H]3CN(CCO)C[C@H]32)c1 | 15.38
Cc1cc(C)n(CC2CCCCN2CC(=O)Nc2cccnc2)n1 (centres unmarked) | 12.62
Cn1ccnc1NC[C@@H]1CCC[C@@H]2CN(CC3CC3)C[C@@H]21 | 20.69
NC(=O)N1CCCN(CCc2nc(-c3cccc(Cl)c3)no2)CC1 | 17.24
CN(C)c1ccc(C(=O)NCC2(O)CCOCC2)cc1 | 21.15
COc1cccc(OCC(=O)N(C)c2cccnc2)c1 | 16.33
N#Cc1ccc(F)c(CNC(=O)NC(CO)Cc2ccccc2)c1 (centres unmarked) | 5.208
CCn1cc(S(=O)(=O)N(C)Cc2c(Br)cnn2CC)c(C)n1 | -60
CCOCc1ccccc1NC(=O)NCC(C)(O)c1cccs1 (centres unmarked) | 12.68
CN1CCN(Cc2ccccc2Oc2cncc(C(N)=O)n2)CC1 | 14.53
CCn1ncc(Br)c1CN(C)S(=O)(=O)c1ccc(C)cc1 | 22.86
COCCC(=O)N1CCC(c2noc3nc(C)cc(C(F)(F)F)c23)CC1 | 16.67
O=C(NCc1cccnc1)[C@@H]1CC[C@@H]2[C@@H](CCN2c2ncccn2)O1 | 21
CC(=O)N1CCC(NC(=O)c2cc(Cl)ccc2O)CC1 | 18.18
COc1cccc(CNCc2c(C)nn(C)c2N(C)C)c1 | 11.01
O=C(Cc1ccc2c(c1)CCO2)N1CCCC1c1noc(C2CC2)n1 (centres unmarked) | 15.79
Cc1cncc(C(=O)N2CCCC(O)(CN3CCCC3)C2)c1 (centres unmarked) | 7.292
O=c1[nH]cc(Nc2ccc(Cl)cc2)c(=O)[nH]1 | -12.36
Cc1cc(C(=O)NCC(C)C)c2c(C3CCCN3)noc2n1 (centres unmarked) | 4.138
CS(=O)(=O)N1CC2(CCN(CC3CC3)C2)Cc2ccccc21 (centres unmarked) | 13.79
c1cc(CNc2cnc(C3CCCN3)cn2)ccn1 (centres unmarked) | 17.45
Cn1cc(S(=O)(=O)N2CCCC2Cn2ccnc2)cc1C(N)=O (centres unmarked) | 11.43
Cc1cc2nc(SCC(=O)NC(C)C)n(Cc3ccco3)c(O)c-2n1 | 6.173
O=C(c1ccoc1)N1CCO[C@@H]2CNC[C@@H]21 | -0.9009
Cc1n[nH]c(C)c1-c1cnc(C2CCN(S(C)(=O)=O)CC2)cn1 | -10
CN(C)C1CCN(C(=O)c2cc(-c3ccn(C)n3)n3ccccc23)CC1 | 10
Cc1cc(C[C@@H]2CCC[C@H]2NCc2cc(F)ccc2F)on1 | 4.348
O=C(O)[C@]12CCCN(Cc3ccncc3)[C@@H]1CCN(c1cnccn1)C2 | 0.9709
Cc1cccc(N2CCc3ncc(CNS(C)(=O)=O)n3CC2)n1 | 5.556
COC(=O)CNC(=O)CSCc1nc(O)c2cc(C)sc2n1 | 15
Cc1cc(C2CCCN(C(=O)c3cnccn3)C2)ccn1 (centres unmarked) | 11.11
COc1cc(C)c(C2CC(=O)Nc3cc(NS(C)(=O)=O)ccc32)cc1C (centres unmarked) | 16.46
CNS(=O)(=O)CCCN1CCCCCC1c1ccc(C)o1 (centres unmarked) | 8
CCN(CCO)C[C@@H]1CN(C(=O)c2sc3ccccc3c2C)C[C@@H]1CO | 6.452
O=C(NCCc1ccccc1F)NCC(O)c1cccc(F)c1 (centres unmarked) | 15.79
NC(=O)c1cc(C2CCCN(C(=O)CCc3cscn3)C2)n[nH]1 (centres unmarked) | 8.219
CCOCCC(=O)Nc1cc(C(N)=O)ccc1N1CCCC(C)C1 (centres unmarked) | -12.82
COc1ccc(OC2CCN(c3ccncc3)CC2)cc1 | 12.64
Cc1cnc(N2CC3(CCN(C(=O)c4ccoc4)C3)C2)nc1 | 8.491
Cc1cc(C)n(CC(=O)NCc2ccccn2)n1 | 21.51
Cc1ccc(-c2ccnc(NC(C)c3c(C)n[nH]c3C)n2)c(C)n1 (centres unmarked) | 8.333
CNC(=O)[C@@H](CC(C)C)N1CCC[C@H]1C(=O)N(C)Cc1ccccc1 | 25
Cc1cc(C)c(CNC(=O)c2ccc3c(c2)CCC3)c(=O)[nH]1 | 14.55
CC(C)CC(C#N)NC(=O)CCNC(=O)C(C)(C)C (centres unmarked) | 19.4
CN(Cc1cccnc1)C[C@@H]1OC[C@H]2CN(Cc3ccoc3)CC[C@H]21 | 22.37
Cc1cnn(CC(C)NCc2nc(-c3ccccn3)no2)c1 (centres unmarked) | 16.05
COc1cccc(CN2CCN(c3ccc4nncn4n3)C(C)C2)c1 (centres unmarked) | 16.44
Cc1ccccc1C(=O)N1C[C@@H](O)[C@H](N2CCOCC2)C1 | 9.859
COc1ncccc1CNC(=O)Nc1cccnc1N1CCCC1 | 20.18
O=C(c1ccc2[nH]ccc2c1)N1Cc2nc(CN3CCCCC3)oc2C1 | 48.72
O=C(NC[C@H]1Cn2c(-c3ccccc3)cnc2CO1)C1CC1 | 20.27
CSc1ccccc1C(=O)NCCCN1CCc2ccccc2C1 | 13.79
OC1CCCOC12CCN(c1ncccn1)CC2 (centres unmarked) | 1.653
CSC(C)(C)CNC(=O)NC(c1nnc2n1CCC2)C(C)C (centres unmarked) | 22.35
COCCc1noc(CN2CCN(CC(O)c3ccccc3)CC2)n1 (centres unmarked) | 13.51
CC(c1ccncc1)N(CCN(C)C)C(=O)Nc1ccc(Cl)c(Cl)c1 (centres unmarked) | 2.632
O=C(Cc1ccc2c(c1)OCCO2)NCc1ccc(-n2cncn2)nc1 | 13.16
CC(=O)N1CCCN(C(=O)NCCCNS(C)(=O)=O)CC1 | 5.479
O=C(Cc1c[nH]c2ccccc12)N1CCC(Nc2cccnc2)CC1 | 14.91
CC(C)C(NC(=O)N1CCS(=O)(=O)CC1)c1ccccc1Cl (centres unmarked) | 17.24
CN(C)c1nc(N)nc(CSCCC(=O)Nc2cccc(Cl)c2)n1 | -38.3
Cc1ccc(NC2CCN(C(=O)c3ccc(F)cc3Cl)CC2)nn1 | 16.52
Cc1c(F)cccc1S(=O)(=O)Nc1noc(C(C)C)n1 | 14.61
CC(C)NC(=O)[C@@H]1C[C@@H](N)CN1C(=O)CCSCc1ccc(F)cc1 | 16.39
COCC(=O)NC(c1ccc(Cl)cc1)C(F)(F)F (centres unmarked) | 15.87
COc1ccc(CNC(=O)c2cc3c(nc2O)CCC(C)C3)cc1 (centres unmarked) | 6.667
CCN1Cc2cc(OC)ccc2N(CC(C)(C)O)CCC1=O | 6.186
CN1CCC(c2nnc(CN3CCC(O)CC3)n2C)CC1 | 21.15
CC(C)CNC(=O)CN1CCCC(c2ccc(C(=O)O)cc2)C1 (centres unmarked) | 20
CCCn1ncnc1C(C)NC(=O)C1CCN(CC(N)=O)CC1 (centres unmarked) | 25
CCNc1ncc(C(=O)N[C@@H](C)[C@H](O)c2ccccc2)cn1 | 25.71
CC(C)(C)C(=O)NCCC(=O)Nc1cc(C#N)cn1C(C)(C)C | 8.333
CCCS(=O)(=O)CC(=O)N1CCN(CC2CC2)c2ccccc21 | 20.59
CC(O)CN1CC2(CCC1=O)CCN(C(=O)c1cnn(C)c1)CC2 (centres unmarked) | 1.075

For reference, 9 entries once more:

| SMILES | Percent Effect |
|---|---|
| `Cc1c(F)cccc1S(=O)(=O)Nc1noc(C(C)C)n1` | 14.61 |
| `CCn1ncc(Br)c1CN(C)S(=O)(=O)c1ccc(C)cc1` | 22.86 |
| `Cc1c(O)oc(-c2ccc(Br)cc2)nc1=O` | 25.71 |
| `O=C(c1ccoc1)N1CCO[C@@H]2CNC[C@@H]21` | -0.9009 |
| `Cc1cccc(N2CCc3ncc(CNS(C)(=O)=O)n3CC2)n1` | 5.556 |
| `O=c1[nH]cc(Nc2ccc(Cl)cc2)c(=O)[nH]1` | -12.36 |
| `Cc1cc(C)c(CNC(=O)c2ccc3c(c2)CCC3)c(=O)[nH]1` | 14.55 |
| `Cc1cccc(-c2ccc(C(=O)N3CCN(C4CC4)CC3)c(=O)[nH]2)c1` | -3.371 |
| `Cc1ccc(-c2ccnc(NC(C)c3c(C)n[nH]c3C)n2)c(C)n1` (centres unmarked) | 8.333 |